Screen size: about 1,400 compounds; about 45 (3%) were called active.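 Rule for the calls: active = half-maximal dose of signal decrease from fit no higher than ten times the top valid tested dose; inconclusive = fit invalid, or curve flat with 30 to 70% inhibition; inactive = the rest.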 This is one part of the list. Measured potencies and affinities stand elsewhere.
target: Lysine-specific demethylase 4A (Homo sapiens) (UniProt O75164); test: JMJD2A histone demethylase inhibitors, dose response, selectivity assay for GASC-1 inhibitor project, biochemical, DELFIA europium, cherry-picked samples (AID 488840); details: GST-JMJD2A(1-420) H3K9me3 demethylation; at 6 µM (top of the series) unless noted;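 note: europium signal reports the dimethyl H3K9 product detected by antibody so inhibitors lower it; 0% = median of neutral control wells and -100% = median of positive control wells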

The chains behind the UniProt entries cited, without tags or fusion partners. Where a name states a change or a piece, a line headed by the entry shows the natural chain unless it says otherwise.
UniProt O75164: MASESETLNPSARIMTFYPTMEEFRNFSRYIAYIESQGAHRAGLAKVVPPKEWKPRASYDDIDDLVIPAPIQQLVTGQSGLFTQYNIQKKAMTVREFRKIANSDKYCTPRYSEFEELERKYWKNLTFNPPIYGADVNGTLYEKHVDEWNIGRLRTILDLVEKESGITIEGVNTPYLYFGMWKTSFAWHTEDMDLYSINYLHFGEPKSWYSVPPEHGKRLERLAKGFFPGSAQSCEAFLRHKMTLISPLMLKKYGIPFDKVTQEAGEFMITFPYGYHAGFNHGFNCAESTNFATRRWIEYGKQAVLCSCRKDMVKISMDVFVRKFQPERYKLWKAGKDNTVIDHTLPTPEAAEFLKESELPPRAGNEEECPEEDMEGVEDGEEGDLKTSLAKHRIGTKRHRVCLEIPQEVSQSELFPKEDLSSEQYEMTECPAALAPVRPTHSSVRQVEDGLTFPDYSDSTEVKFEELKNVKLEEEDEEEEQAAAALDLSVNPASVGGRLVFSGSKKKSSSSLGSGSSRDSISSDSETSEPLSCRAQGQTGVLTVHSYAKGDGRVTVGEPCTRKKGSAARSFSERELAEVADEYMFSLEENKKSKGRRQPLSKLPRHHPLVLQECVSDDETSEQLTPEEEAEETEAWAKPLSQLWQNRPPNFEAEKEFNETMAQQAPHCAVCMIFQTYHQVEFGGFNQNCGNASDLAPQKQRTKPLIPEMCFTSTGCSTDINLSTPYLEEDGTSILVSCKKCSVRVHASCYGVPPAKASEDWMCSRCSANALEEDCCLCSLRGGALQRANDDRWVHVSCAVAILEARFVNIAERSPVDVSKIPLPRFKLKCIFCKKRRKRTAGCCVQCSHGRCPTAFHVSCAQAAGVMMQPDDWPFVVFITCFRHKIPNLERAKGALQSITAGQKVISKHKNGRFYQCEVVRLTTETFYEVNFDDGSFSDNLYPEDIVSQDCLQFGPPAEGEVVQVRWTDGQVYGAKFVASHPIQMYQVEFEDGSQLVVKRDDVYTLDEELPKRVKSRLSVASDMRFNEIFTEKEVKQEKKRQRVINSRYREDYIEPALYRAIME

Activity change, negative = inhibition, inactive:
O=C(COC(=O)c1ccccc1SCC(=O)N1CCCC1)NC1CCS(=O)(=O)C1 (stereo not given) -13.5%, COc1ccccc1NC(=O)COC(=O)/C=C/c1cccs1 4.06%, Cc1cc(C)c(S(=O)(=O)Nc2cc(SCC(=O)O)c(O)c3ccccc23)cc1C 11.9%, CC(=O)OC(C(=O)NCc1ccc2c(c1)OCO2)c1ccccc1Cl (stereo not given) 2.67%, Nc1nc2n(n1)C(c1cccs1)CC(c1ccccc1)N2 (stereo not given) -17.4%, CCc1ccc(NC(=O)N(CCN2CCOCC2)C2CCN(C(C)=O)CC2)cc1 4.41%, CSCCC(NS(=O)(=O)c1ccc2ccccc2c1)C(=O)O (stereo not given) 0.036%, CC(=O)C[C@@H](O)CC(=O)[C@@H]1OC(=O)[C@@H](C)C/C=C\Cc2ccccc21 -0.669%, COC(=O)c1ccccc1NC(=O)CC(NCc1ccccc1)C(=O)O (stereo not given) -2.26%, COc1ccc(N2CCN(C(=O)c3nn(C)c4c3CS(=O)(=O)c3ccccc3-4)CC2)cc1 1.99%, COC(=O)C1=C(C)N(Cc2ccccc2)C(=NCCc2c[nH]c3ccccc23)N[C@H]1c1ccccc1 1.45%, COc1cccc(NC(=S)/C(=C(\[O-])c2ccc(C)c([N+](=O)[O-])c2)[n+]2ccccc2)c1 1.93%, CCC(C)NCCCOc1ccc(C)cc1OC (stereo not given) -7.21%, CNC(=O)/C(C#N)=C/c1c(N(Cc2ccccc2)Cc2ccccc2)nc2ccccn2c1=O -3.91%, Cc1cccc(NC(=O)CSc2cccc3cccnc23)c1 7.07%, Cc1occc1-c1nnc(SCC(=O)c2cc3ccccc3oc2=O)o1 2.21%, COc1ccc(OC)c(C2/C(=C(\O)c3ccc(OC)c(Cl)c3)C(=O)C(=O)N2CCN(C)C)c1 (stereo not given) -1.87%, CN(C)c1ccc(C(=O)OCC(=O)N2CCCC2)cc1 -8.32%, CC(=O)OCC1OC(OC2C[C@]3(C)C(CC(O)C4C([C@](C)(CCC=C(C)C)OC5OC(CO)C(O)C(O)C5O)CC[C@]43C)[C@@]3(C)CCC(O)C(C)(C)C23)C(O[C@@H]2OC(C)C(O)C(O)C2O)C(O)C1O (stereo not given in full) -0.785%, COc1ccc(N(CC(=O)Nc2ccc(S(=O)(=O)N3CCCC3)cc2)S(C)(=O)=O)cc1OC -3.77%, Nc1cccc(C(=O)Nc2ccco2)c1 -3.86%, CCOC(=O)c1sc2nc(N3CCOCC3)c3c(c2c1N)CCN(Cc1ccccc1)C3 2.62%, O=C(Nc1ccccn1)c1ccc(C(=O)c2ccccc2)cc1 2.41%, Cc1onc(-c2ccccc2)c1C(=O)Nc1c(C)n(C)n(-c2ccccc2)c1=O -0.799%, O=C(N/N=C/c1cc([N+](=O)[O-])cc([N+](=O)[O-])c1O)/C(=C\c1cccs1)NC(=O)c1ccccc1 1.28%, COc1ccc(NC(=O)O/N=C/c2ccccc2)cc1 5.42%, O=C(CCc1ccccc1)c1ccc2c(c1)OCCCO2 -1.66%, CN(C)c1nc(C(=O)Nc2ccccc2)nc(N(C)C)n1 -0.74%, O=S(=O)(NCCSCc1ccc(Cl)c(Cl)c1)c1ccc2c(c1)OCCO2 -6.95%, COc1ccc(NS(=O)(=O)c2cccc(C(=O)OCC(=O)Nc3cc(C)on3)c2)cc1 -0.36%, Cc1noc(C)c1S(=O)(=O)N(C)C[C@H]1Oc2c(NC(=O)Nc3ccc(C(F)(F)F)cc3)cccc2C(=O)N([C@H](C)CO)C[C@@H]1C -0.632%, CCOC(=O)c1c(S(=O)(=O)N2CCCC(C(=O)Nc3ccc(C)cn3)C2)c(C)n(C)c1C (stereo not given) -4.67%, Cc1ccc(O)c(N=NC2=C(O)CC(C)(C)CC2=O)c1 6.97%, O=C(NC1CCCCC1)NC1C2CC3CC(C2)CC1C3 (stereo not given) 7.58%, CC(=O)c1nnn(-c2nc(N3CCCC3)nc(N(c3ccccc3)c3ccccc3)n2)c1C -2.9%, COc1ccc(C2CC(=O)C=C(NNS(=O)(=O)c3ccc(C)cc3)C2)cc1 (stereo not given) 6.73%, CCc1ccc(CCC(=O)Nc2sc3c(c2C#N)CCCC3)o1 2.59%, CN1N=C(C(F)(F)F)CC1=O -0.844%, COc1ccc(CCNCCN2CCOCC2)cc1 7.71%, COc1ccc(CN2CCNC(=O)C2CC(=O)NCc2csc(C(C)C)n2)c(OC)c1 (stereo not given) -0.902%, O=S(=O)(c1ccc2ccccc2c1)N(CC(O)COCc1ccco1)c1ccccc1 (stereo not given) -3.17%, COc1ccc2cc(Br)ccc2c1CC(=O)NCCCN1CCOCC1 2.24%, COC(=O)[C@]1(C)N[C@H](CN(C)S(=O)(=O)c2ccc(C)cc2)[C@@H]2C(=O)N(Cc3ccccc3)C(=O)[C@@H]21 8.69%, C[C@H](CO)N1C[C@H](C)[C@@H](CN(C)C(=O)Nc2ccccc2)Oc2c(NC(=O)c3ccncc3)cccc2C1=O -5.2%, O=c1cnnc(Nc2ccccc2)[nH]1 -3.76%, Cc1ccc(C(=O)Oc2csc(=S)n2C(=O)c2ccc(C)cc2)cc1 -2.83%, Cc1ccccc1NC(=O)C1CC(=O)OC12CCOC(C)(C)C2 (stereo not given) -0.856%, COCCn1c(C(C)C)nc2sc3ccccc3c(=O)c2c1=O 0.716%, O=C(Oc1ccc(N2C(=O)CCC2=O)cc1)c1ccccc1 -0.204%, O=C(O)CCNc1ccc2c(c1)OCCO2 3.65%, CCc1ccc(NC(=O)C/C(C)=N/NC(=O)COc2ccc(C)cc2Br)cc1 5.2%, CCC(=O)N1CCc2cc(S(=O)(=O)CCC(=O)Nc3cccc(F)c3)ccc21 3.52%, O=C(O)CCC(=O)Nc1nc2nc(-c3ccccc3)cc(-c3ccccc3)n2n1 5.32%, CC(C)=CCN1CCN(Cc2cn[nH]c2C2CCCCC2)CC1CCO (stereo not given) -1.51%, COc1ccc(CCC(=O)Nc2sccc2C#N)cc1 -0.731%
